Results are given in words; binding and its absence hold for the method and conditions named. Some results given as binding are weak or reduced against the parent protein; the word gives no strength.

By UniProt entry, the sequences of proteins in these tests, tags left out. Where a name states a change or a piece, a line headed by the entry shows the natural chain unless it says otherwise. Chains listed by the source or under a name are the forms on record and can include a tag or linker.
Ube2W V30K/D67K/C91K (Q96B02, form named): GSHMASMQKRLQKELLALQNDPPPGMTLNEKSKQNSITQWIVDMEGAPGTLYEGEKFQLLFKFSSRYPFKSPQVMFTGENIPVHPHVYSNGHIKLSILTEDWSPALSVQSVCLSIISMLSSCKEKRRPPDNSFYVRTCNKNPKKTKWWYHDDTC
UniProt P19474: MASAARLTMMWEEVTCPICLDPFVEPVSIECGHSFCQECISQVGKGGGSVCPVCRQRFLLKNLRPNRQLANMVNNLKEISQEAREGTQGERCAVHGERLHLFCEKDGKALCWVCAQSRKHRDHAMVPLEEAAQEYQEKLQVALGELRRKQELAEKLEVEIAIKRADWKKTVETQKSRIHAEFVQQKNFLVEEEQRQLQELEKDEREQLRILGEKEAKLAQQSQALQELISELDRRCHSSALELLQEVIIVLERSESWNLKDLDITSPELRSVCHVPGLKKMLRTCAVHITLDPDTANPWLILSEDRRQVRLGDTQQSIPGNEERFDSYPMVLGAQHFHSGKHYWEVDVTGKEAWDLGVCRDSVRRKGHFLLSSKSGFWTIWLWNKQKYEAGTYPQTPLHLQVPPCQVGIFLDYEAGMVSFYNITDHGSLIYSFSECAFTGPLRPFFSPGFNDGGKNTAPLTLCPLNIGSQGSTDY

Drawing on patent US20250376495A1, this text covers binding for one substance.

In the test the target is Ube2W V30K/D67K/C91K (UniProt Q96B02). Put plainly: X-ray crystal structure of the complex.

For the substance “TRIM21 RING domain (from UniProt P19474 1-85) (enzyme)”, the binding entry was “binds”.
